The text below walks through data of the supplement of paper PMC10735217.

SMILES strings stand for the structures. Where a name gives a salt, the structure may show the parent alone. The list shows a part of the results. Repeats in this data set agree poorly, so a single value says little.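 The human kidney-derived cells carry a stably integrated construct of eight TEAD-binding elements driving luciferase, read by luminescence in a drug-repurposing library screen. A compound counts as a hit when its signal is more than five robust Z scores above the plate mean.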

For the assay, the system named is HEK293A TEAD-LUC reporter. As to the kind of experiment: TEAD-luciferase reporter activity (YAP activation), robust Z score vs plate; higher = stronger YAP/TEAD activation. To be noted: 24 h. (Reporter assays use an easily measured gene product as a stand-in for the process of interest.)

In the case of `COc1c(OCc2ccc(-c3ccccc3-c3nnn[nH]3)cc2)cc(C)nc1C`, the TEAD-luciferase reporter activity (compound concentration: 200 nM) was inactive: -1.49, the TEAD-luciferase reporter activity (compound concentration: 2 uM) was inactive: -0.541 and the TEAD-luciferase reporter activity (compound concentration: 10 uM) was inactive: -0.176.
As for `NS(=O)(=O)c1cc(C(=O)O)cc(N2CCCC2)c1Oc1ccccc1` [piretanide], the TEAD-luciferase reporter activity reads like this: (compound concentration: 200 nM) inactive: 0.596; (compound concentration: 2 uM) inactive: -0.888; (compound concentration: 10 uM) inactive: -1.69.
With `CCc1cccc(C)c1-n1c(=O)c2ccccc2n(C)c1=O`, the TEAD-luciferase reporter activity is inactive: 0.399 (compound concentration: 200 nM), inactive: -1.86 (compound concentration: 2 uM) and inactive: 0.553 (compound concentration: 10 uM).
`CC(C)=CCC/C(C)=C/CC/C(C)=C/C(=O)OCC(=O)[C@@]1(O)CC[C@H]2[C@@H]3CCC4=CC(=O)C=C[C@]4(C)[C@H]3[C@@H](O)C[C@@]21C`: the TEAD-luciferase reporter activity is inactive: -0.846 (compound concentration: 200 nM), inactive: 0.485 (compound concentration: 2 uM) and inactive: 0.903 (compound concentration: 10 uM).
`CN1N=C2CCN(C(=O)[C@@H](COCc3ccccc3)NC(=O)C(C)(C)N)CC2(Cc2ccccc2)C1=O` (some centres undefined): the TEAD-luciferase reporter activity was inactive: 2.7 (compound concentration: 200 nM), inactive: -0.717 (compound concentration: 2 uM) and inactive: 0.943 (compound concentration: 10 uM).
`N=C(N)NCCC[C@H](NC(=O)[C@@H]1CCCN1C(=O)[C@H](CC(=O)O)NC(=O)[C@H](CO)NC(=O)[C@@H](N)CC(=O)O)C(=O)O`: the TEAD-luciferase reporter activity runs as follows: (compound concentration: 200 nM) inactive: -0.228; (compound concentration: 2 uM) inactive: 0.633; (compound concentration: 10 uM) inactive: -0.608.
Consider `CN(C)C(=O)N[C@H]1CC[C@H](CCN2CCN(c3cccc(Cl)c3Cl)CC2)CC1` [cariprazine hydrochloride, prolonged-release], for which the TEAD-luciferase reporter activity by setting is: (compound concentration: 200 nM) inactive: -1.21; (compound concentration: 2 uM) inactive: -1.15; (compound concentration: 10 uM) inactive: -2.24.
The like results for `CN/C(=N\S(=O)(=O)c1ccc(C(F)(F)F)cc1)N1C[C@@H](c2ccccc2)C(c2ccc(Cl)cc2)=N1` were, in that order, inactive: -0.0494, inactive: -1.06 and inactive: -0.854.
The corresponding values for `Cc1cc(CC(OC(=O)N2CCC(N3CCc4ccccc4NC3=O)CC2)C(=O)N2CCC(N3CCOCC3)CC2)cc(C)c1O` (centres undefined) are inactive: -0.416, inactive: -0.873 and inactive: -0.936.
The like results for `C=C(C)[C@@H]1CC[C@]2(CO)CC[C@]3(C)[C@H](CC[C@@H]4[C@@]5(C)CC[C@H](O)C(C)(C)[C@@H]5CC[C@]43C)[C@@H]12` [Betulin] were, in that order, inactive: -1.82, inactive: 1.32 and inactive: 1.35.
With `CN(C)C(=O)NC1CC2(CCN(C(=O)c3ccc4[nH]ccc4c3)CC2)Oc2ccccc21` (centres undefined), the TEAD-luciferase reporter activity was inactive: 1.1 (compound concentration: 200 nM) and inactive: -0.501 (compound concentration: 10 uM).
On to `O=c1[nH]c2cc(C(F)(F)F)c(N3CCOCC3)cc2n(CP(=O)(O)O)c1=O` [Fanapanel], for which the TEAD-luciferase reporter activity runs as follows: (compound concentration: 200 nM) inactive: -1.54; (compound concentration: 2 uM) inactive: -0.681; (compound concentration: 10 uM) inactive: -0.184.
Regarding `OCCN1CCN(CCC=C2c3ccccc3Sc3ccc(C(F)(F)F)cc32)CC1` [Flupentixol hydrochloride], the TEAD-luciferase reporter activity by setting is: (compound concentration: 200 nM) inactive: -1.37; (compound concentration: 2 uM) inactive: -0.102; (compound concentration: 10 uM) inactive: -0.191.
The like results for `CCCCC1(O)C(=O)N(c2ccccc2)N(c2ccccc2)C1=O` were, in that order, inactive: -1.69, inactive: 0.265 and inactive: -1.14.
Consider `CN(Cc1cccc(C(F)(F)F)c1)C1CCc2ccccc21` (centres undefined), for which the TEAD-luciferase reporter activity was inactive: 0.808 (compound concentration: 200 nM) and active: 15.7 (compound concentration: 10 uM).
Turning to `Cc1cnn(C2CCN(c3nc4ccccc4n3Cc3ccc(F)cc3)CC2)c1` [H1 receptor antagonist], for the setting “compound concentration: 2 uM”, the TEAD-luciferase reporter activity was inactive: 0.255.
`Cc1cnn(C2CCN(c3nc4ccccc4n3Cc3ccc(F)cc3)CC2)c1` [H1 receptor antagonist, Neuroc]: the TEAD-luciferase reporter activity reads like this: (compound concentration: 200 nM) inactive: -0.148; (compound concentration: 10 uM) inactive: 0.855.
With `CN(C)c1ncnc2c1ncn2CCCCCOC(=O)NC(CCCNC(=N)N)C(=O)O` (centres undefined) [Pharmaprojects No. 4667], the TEAD-luciferase reporter activity (compound concentration: 200 nM) was inactive: -0.814, the TEAD-luciferase reporter activity (compound concentration: 2 uM) was inactive: -0.0233 and the TEAD-luciferase reporter activity (compound concentration: 10 uM) is inactive: 0.871.
The like results for `COc1cc(C(F)(F)F)cc(C(F)(F)F)c1C(=O)NC(c1ccccc1)C(C)(C)N1CCCC1` (centres undefined) were, in that order, inactive: 3.45, inactive: -0.28 and inactive: 1.57.
As to `CN(C)CCn1cnc2c1c(=O)n(C)c(=O)n2C`, the TEAD-luciferase reporter activity is inactive: 0.884 (compound concentration: 200 nM), inactive: -0.582 (compound concentration: 2 uM) and inactive: -0.174 (compound concentration: 10 uM).
`COc1ccc(CN2CCCCC23Cc2ccccc2CN(C(C)=O)C3)cc1` (centres undefined): the TEAD-luciferase reporter activity is, setting by setting: (compound concentration: 200 nM) inactive: 2.22; (compound concentration: 10 uM) inactive: -0.546.
For the molecule `Cc1ccccc1-c1nc(NC2CCCCC2)ncc1N(C)C(=O)C(C)(C)c1cc(C(F)(F)F)cc(C(F)(F)F)c1`, the TEAD-luciferase reporter activity is, setting by setting: (compound concentration: 200 nM) inactive: 1.21; (compound concentration: 2 uM) inactive: -1.77; (compound concentration: 10 uM) inactive: 1.22.
The like results for `CC(CNC1CCCCC1)OC(=O)c1ccccc1` (centres undefined) were, in that order, inactive: -0.221, inactive: -1 and inactive: 1.53.
As for `CSCC[C@H](N)C(=O)N[C@@]1(C(=O)O)CS(=O)(=O)[C@H]2[C@H](C(=O)O)[C@H]21` [pomaglumetad methionil], the TEAD-luciferase reporter activity reads like this: (compound concentration: 200 nM) inactive: 0.782; (compound concentration: 2 uM) inactive: 0.301; (compound concentration: 10 uM) inactive: 0.709.
Take `CC(=O)OCC(=O)[C@@]1(O)CC[C@H]2[C@@H]3CCC4=CC(=O)CC[C@]4(C)[C@H]3[C@@H](O)C[C@@]21C` [Cortell]: the TEAD-luciferase reporter activity reads like this: (compound concentration: 200 nM) inactive: -0.567; (compound concentration: 10 uM) inactive: 0.648.
Regarding `CC(=O)OCC(=O)[C@@]1(O)CC[C@H]2[C@@H]3CCC4=CC(=O)CC[C@]4(C)[C@H]3[C@@H](O)C[C@@]21C` [Hydrocortisone acetate], the TEAD-luciferase reporter activity (compound concentration: 2 uM) was inactive: -1.16.
